Reference: article PMC7819943, “Rice protein-binding microarrays: a tool to detect cis-acting elements near promoter regions in rice”
Some of the results follow.

The chains behind the UniProt entries cited, without tags or fusion partners.
UniProt Q0JBA9, entry or part of it: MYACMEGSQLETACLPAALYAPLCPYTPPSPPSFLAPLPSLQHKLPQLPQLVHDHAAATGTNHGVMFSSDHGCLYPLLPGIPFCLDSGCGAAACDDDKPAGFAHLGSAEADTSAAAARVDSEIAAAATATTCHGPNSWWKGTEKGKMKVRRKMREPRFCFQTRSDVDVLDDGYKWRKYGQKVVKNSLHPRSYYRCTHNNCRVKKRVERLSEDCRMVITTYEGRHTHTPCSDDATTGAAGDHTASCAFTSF

target: OsWRKY34 (Oryza sativa, UniProt Q0JBA9 1-250); assay: protein-binding microarray (RPBM); PBS, 2% BSA, 51.3 ng/ul salmon testes DNA, 50 uM zinc acetate, 200 nM TF, 25 C, 1 h; high values mean tight binding; conditions: protein: recombinant; tags: N-terminal polyhistidine and DsRed monomer fusion (pET32a); label: CyDye5-dUTP incorporated in the synthesized complementary strand; 3' TTTTT single-stranded linker to array surface; dsDNA, one strand shown
In short: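 The binding signal for each feature is its fluorescence intensity in arbitrary units. An Axon 4000B scanner was used to read a custom Agilent array that had been made double-stranded with Cy5-dUTP primer extension, blocked with 2% BSA, incubated at 25 °C for 1 h with 200 nM protein in PBS, 2% BSA, salmon testes DNA and 50 µM zinc acetate, and washed. The protein was an N-terminal polyhistidine–DsRed transcription factor fusion from E. coli BL21-CodonPlus, purified on Ni–NTA.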

Sequence	binding signal
TTGATGCGCCTCCCTATGGTAGCTGCCTCTGTTTTCTTTTCGGAGTCACCTAGTGCAG	8780 fluorescence intensity (a.u.)
TCAAACATTTAAAAAAAAAGTCAACGGCGTCAAATATTTTCGGAGTCACCTAGTGCAG	8470 fluorescence intensity (a.u.)
TTTGTAACCATTAATATTTTTTTCTCAAATACTTAGTTTTCGGAGTCACCTAGTGCAG	8190 fluorescence intensity (a.u.)
ATATTTGGTAGATAATCGATTTTTTTTTCTTCTTCTCCAACGGAGTCACCTAGTGCAG	10600 fluorescence intensity (a.u.)
CACGGTGCCCAGCCAAACACCTCCACCTCCACATCTCTCTCGGAGTCACCTAGTGCAG	8520 fluorescence intensity (a.u.)
ACTTTACCTAATACATCACCCGTTTCAAACTTTAAGCGTTCGGAGTCACCTAGTGCAG	10500 fluorescence intensity (a.u.)
CCAGCGACTTTGACCATACATTTGTTTTCTACTTAATTGACGGAGTCACCTAGTGCAG	9610 fluorescence intensity (a.u.)
ACCAAAATCTCTCATCCTTGCCACCACAGTGACCACTCCGCGGAGTCACCTAGTGCAG	10700 fluorescence intensity (a.u.)
GCCTACCCGCCGGAATCTTGCGTCATCTGGCGGCCGCCGCCGGAGTCACCTAGTGCAG	8180 fluorescence intensity (a.u.)
GCCCCACTATTCCCACCCGCACGAGACAGACAGGTGGGCCCGGAGTCACCTAGTGCAG	8790 fluorescence intensity (a.u.)
CCCGCGGCGGCGGGGTGGAGGCGACGGCGGTGGTGGTGGGCGGAGTCACCTAGTGCAG	8590 fluorescence intensity (a.u.)
AGAATGCTACGTTAGCGAAACCACCCATATATATTGCCATCGGAGTCACCTAGTGCAG	8160 fluorescence intensity (a.u.)
GATCGCTTCCATTTTTACTCAACCAGCCGCTGCCCGTTGGCGGAGTCACCTAGTGCAG	8640 fluorescence intensity (a.u.)
CTTGCAGCTCGTCGTCGTCGTCGTTGATCTTTGGCTATATCGGAGTCACCTAGTGCAG	10600 fluorescence intensity (a.u.)
CCCGCCCGTGTAAGCATCCACCGCCTCGCCTGCGCGGTTCCGGAGTCACCTAGTGCAG	10900 fluorescence intensity (a.u.)
ATGTGAGGTATTCTGTGGTGTATTGTGCAAGACTATGATGCGGAGTCACCTAGTGCAG	8300 fluorescence intensity (a.u.)
TCCTTTGCATGTTCCATTTCACTTGTACCATGATTTTTTTCGGAGTCACCTAGTGCAG	12600 fluorescence intensity (a.u.)
TTCCTCGCTACTAGCCTACTACCACCTTAAAATGGCCCACCGGAGTCACCTAGTGCAG	8430 fluorescence intensity (a.u.)
ATCGCGCGCTCGTTCTCGCACGCACGCGGCGAGCGCTCGCCGGAGTCACCTAGTGCAG	8410 fluorescence intensity (a.u.)
TCCCACATTTAATTCCCCATACATGTGTCCAAACATTTAACGGAGTCACCTAGTGCAG	8100 fluorescence intensity (a.u.)
AACCCCGACCCGACCCGCAAACACACAATCTGCTTTCTCCCGGAGTCACCTAGTGCAG	8460 fluorescence intensity (a.u.)
TTGCTGTGCTGTATGTATGTGTGTGCATGATTTTGTCGTTCGGAGTCACCTAGTGCAG	10900 fluorescence intensity (a.u.)
CTCTGGTTGTCTTTCCTTATCCGGAACTCTCACCATATCTCGGAGTCACCTAGTGCAG	11400 fluorescence intensity (a.u.)
AAGCTGGTTTGGCTAATTGTGTTGTGTAACTATAAATCTTCGGAGTCACCTAGTGCAG	8280 fluorescence intensity (a.u.)
TCTTTGGATTTGAAACTTGGCGGTGGTGGATTGAGGCGGTCGGAGTCACCTAGTGCAG	8160 fluorescence intensity (a.u.)
GACCCACCCAACCCAGCTGATGATTTGCTCCGGCCGCCTTCGGAGTCACCTAGTGCAG	8680 fluorescence intensity (a.u.)
CGCCTTGTCTGTCCCTACTATATCTACCGTCTCGCCTATTCGGAGTCACCTAGTGCAG	9850 fluorescence intensity (a.u.)

Sequence	binding signal
TTCTCCACTTTTTCAACCTGACTTCGCCGCCGCAAGTACTCGGAGTCACCTAGTGCAG	8230 fluorescence intensity (a.u.)
GCGCCGCCGCCGCCGCCACCATCGCCCCGCTGACCGCCTCCGGAGTCACCTAGTGCAG	10800 fluorescence intensity (a.u.)
ACACGCCGACACCCATCTCTTCGTCTTCCTCGCCTAAAACCGGAGTCACCTAGTGCAG	10100 fluorescence intensity (a.u.)
CGTTGTCCTTCGGATCATCTTGGCATATCTCTCTGCAGCACGGAGTCACCTAGTGCAG	8990 fluorescence intensity (a.u.)
TGGGATAGAGGGAGTATGTTTTTTCTATTTCTCGGTTTTCCGGAGTCACCTAGTGCAG	8120 fluorescence intensity (a.u.)
TTTTCTGTTCATGCGTATCTACATGTTTGTACAGCCAAACCGGAGTCACCTAGTGCAG	8070 fluorescence intensity (a.u.)
ACTTCGTGGTCGGGGAGCGGATCGGGGAAGGGTCGTTCGGCGGAGTCACCTAGTGCAG	8460 fluorescence intensity (a.u.)
ACTCCACCGTACCAACCGCGGCGCGGCCGATCGATCGACGCGGAGTCACCTAGTGCAG	8170 fluorescence intensity (a.u.)
ATGCACCACTGTTCCTGTCCTGGCTTTGCACAACATCCATCGGAGTCACCTAGTGCAG	13300 fluorescence intensity (a.u.)
GATTTCCTTTCCCGCCACACTCTCGCCTCGCCGCAAAACTCGGAGTCACCTAGTGCAG	14500 fluorescence intensity (a.u.)
CTCCTCATCTCGGCAAAACCACCACCGCATTGCCGGTATACGGAGTCACCTAGTGCAG	10400 fluorescence intensity (a.u.)
CCTCTACTCGACTCGACTCGACTCGCTAGTCGCTACCACCCGGAGTCACCTAGTGCAG	9230 fluorescence intensity (a.u.)
GTCCACTCACAAATCGATCTCTCTCCTGCCATCTTCAGATCGGAGTCACCTAGTGCAG	11000 fluorescence intensity (a.u.)
AATCTATGTACATTCGTTATTTTAGAAGAAGCCGTATAATCGGAGTCACCTAGTGCAG	9000 fluorescence intensity (a.u.)
TTACACTACTTCCGTTTTTCATTTTCATTATTTTCGAGTTCGGAGTCACCTAGTGCAG	11900 fluorescence intensity (a.u.)
AACTACGTACAATATACCAGCCATTCGAGCAATGTTCATACGGAGTCACCTAGTGCAG	8560 fluorescence intensity (a.u.)
ACTCTTTTGTTTTTATGTCGTGCAAGTGTACCCTTCGGTACGGAGTCACCTAGTGCAG	9860 fluorescence intensity (a.u.)
ATATCCGTGGTTGTTTTGGTTGTTGCGCCTAAAAATCCTGCGGAGTCACCTAGTGCAG	8750 fluorescence intensity (a.u.)
ATTTCAGCTCTGCTTCACCGCAACAACTCCCGGTAAATTCCGGAGTCACCTAGTGCAG	8350 fluorescence intensity (a.u.)
TTTTTATTTTTCGCGTTTTTAAGATAATGTCTTAACCAATCGGAGTCACCTAGTGCAG	8740 fluorescence intensity (a.u.)
GTCAATCATGGGATATTACTGTACTACCTCCGTCTCAGAACGGAGTCACCTAGTGCAG	8100 fluorescence intensity (a.u.)
ACATCTCCGTACCGCCACTCGCCAAGTCGCCGCCGCTCTACGGAGTCACCTAGTGCAG	11700 fluorescence intensity (a.u.)
TCGGACCACCAGACGCCTCCGCTGTCGCAGCACTGATCTGCGGAGTCACCTAGTGCAG	9030 fluorescence intensity (a.u.)
AGACCGGCGCTCCGTCTCTCGTACCACCGTACCACCCTAACGGAGTCACCTAGTGCAG	8470 fluorescence intensity (a.u.)
ATTTGCTCTCGTCTGCCTCTCCGACCACGACCAGAGCTCGCGGAGTCACCTAGTGCAG	9090 fluorescence intensity (a.u.)
CACATATCCATCTTTCTTAATTATCTTTCTGTGTACTTGCCGGAGTCACCTAGTGCAG	9340 fluorescence intensity (a.u.)
GTTTCCTAACCATTGGATCCCTCGATCTAACGTCTCACATCGGAGTCACCTAGTGCAG	8750 fluorescence intensity (a.u.)

An excerpt of these results, with bars between the fields.
Sequence | binding signal
TTACACTACTTCCGTTTTTCATTTTCATTATTTTCGAGTTCGGAGTCACCTAGTGCAG | 11900 fluorescence intensity (a.u.)
AACTACGTACAATATACCAGCCATTCGAGCAATGTTCATACGGAGTCACCTAGTGCAG | 8560 fluorescence intensity (a.u.)
ACTCTTTTGTTTTTATGTCGTGCAAGTGTACCCTTCGGTACGGAGTCACCTAGTGCAG | 9860 fluorescence intensity (a.u.)
ATATCCGTGGTTGTTTTGGTTGTTGCGCCTAAAAATCCTGCGGAGTCACCTAGTGCAG | 8750 fluorescence intensity (a.u.)
ATTTCAGCTCTGCTTCACCGCAACAACTCCCGGTAAATTCCGGAGTCACCTAGTGCAG | 8350 fluorescence intensity (a.u.)
